PubChem BioAssay AID504764 – Drosophila RNAi Screening Center, 2011
Screen: 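Knock-downs that raise or lower a Notch target reporter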 (primary screen). System: Drosophila Kc167 cells. Knock-down reagent: long dsRNA against Drosophila genes. Time to read-out: about 5 days (4 days dsRNA, then 24 h after transfection). Treatment: transfection of constitutively active membrane-tethered Notch lacking the extracellular domain, read 24 h later. Read-out: 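Firefly luciferase from an E(spl)m3 reporter with active Notch, plus control-promoter and uninduced reporter wells for normalisation; unnormalised counts, duplicate wells a and b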. Reading the numbers: induced reporter light, run 1, well a and induced reporter light, run 1, well b: higher = more light from the Notch target reporter with active Notch; control promoter light, run 1, well a and control promoter light, run 1, well b: higher = more light from the viral control promoter (cell number, transfection, viability); uninduced reporter light, run 1, well a: higher = more light from the Notch target reporter without active Notch. Active means: 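Wells with low control signal or poorly matching duplicates excluded; duplicates averaged; per source plate, z beyond ±2 for induced/control log2 ratio or beyond ±1.8 for induced/uninduced marks a hit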. Meaning of the calls: active = modifier hit (raised or lowered Notch signal); inactive = not a hit.
In all, the deposit lists about 22,000 reagents; shown is a random part of those with a known target gene and a result. In the full data, 403 (1.9%) are marked active. 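Unnormalised raw counts per well; ratio z-scores behind the hit calls and whether each hit raises or lowers signal are not deposited.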 A plus sign joins genes that one reagent is predicted to hit. Not stated in the record: the amount of reagent.

Gene	dsRNA	induced reporter light, run 1, well a	induced reporter light, run 1, well b	control promoter light, run 1, well a	control promoter light, run 1, well b	uninduced reporter light, run 1, well a	Outcome
CG31029	DRSC15422	1.12e5	1.12e5	2.09e5	1.98e5	10825	inactive
mir-210 (retired record)	DRSC19230	99675	1.01e5	99725	83005	7780	inactive
CG13625	DRSC14627	1.73e5	1.60e5	1.82e5	2.08e5	10635	inactive
Nach	DRSC07478	1.06e5	80465	1.06e5	1.32e5	10885	inactive
CG10804	DRSC17764	1.70e5	1.85e5	2.28e5	2.22e5	12255	inactive
CG1354	DRSC17902	1.12e5	1.09e5	2.09e5	1.66e5	8140	inactive
CG13716	DRSC08325	2.22e5	1.47e5	1.33e5	1.49e5	7750	inactive
CG13716	DRSC22815						active
CG16758	DRSC07984	1.77e5	2.02e5	2.27e5	2.39e5	11350	inactive
CG16758	DRSC08492	1.11e5	93490	2.02e5	2.00e5	7265	inactive
bwa	DRSC01749	82045	75925	85100	66425	8238	inactive
bwa	DRSC02310	57895	42660	49705	42905	2750	inactive
CG31211	DRSC14953	1.14e5	1.12e5	89785	82770	8300	inactive
CG31211	DRSC15344	61300	65970	63630	52620	3635	inactive
CG9961	DRSC00738	91735	1.01e5	83905	61555	7050	inactive
neb	DRSC03577	3.25e5	3.32e5	3.54e5	3.04e5	21950	inactive
LIMK1	DRSC19811	1.88e5	1.75e5	2.47e5	1.87e5	14805	inactive
Papst2	DRSC10924	1.07e5	1.64e5	85015	75940	9082	inactive
snz	DRSC17969	1.57e5	1.40e5	2.39e5	3.14e5	10600	inactive
CG32625	DRSC18994	1.09e5	91755	1.14e5	1.11e5	8325	inactive
MrgBP	DRSC06417	1.66e5	1.63e5	2.50e5	2.29e5	13860	inactive
UbcE2M	DRSC10828	1.22e5	1.06e5	79035	84735	12465	inactive
Ddr	DRSC00922	1.20e5	94875	1.41e5	1.58e5	7380	inactive
Ddr	DRSC00923	1.19e5	1.21e5	1.46e5	1.61e5	8850	inactive
Ddr	DRSC02150	1.96e5	1.60e5	2.07e5	2.15e5	10410	inactive
Ddr	DRSC03229	1.55e5	1.33e5	1.85e5	1.55e5	7795	inactive
Ddr	DRSC03230	1.75e5	1.64e5	2.14e5	2.01e5	12900	inactive
kappaTry	DRSC06146	1.28e5	1.14e5	1.41e5	1.36e5	9888	inactive
Art8	DRSC02530	1.05e5	1.28e5	56025	79335	15245	inactive
CheB98a	DRSC14882	1.32e5	1.42e5	1.78e5	1.70e5	11195	inactive
CG9109	DRSC03139	63145	79635	64400	78005	6125	inactive
NitFhit	DRSC08680	1.45e5	1.06e5	1.78e5	1.52e5	8395	inactive
Usp12-46	DRSC16175	1.38e5	1.64e5	1.87e5	1.53e5	12570	inactive
CG15225	DRSC04232	46575	45320	45780	32605	1840	inactive
ymp	DRSC13720	1.83e5	2.09e5	1.87e5	1.76e5	17900	inactive
ymp	DRSC14482	1.47e5	1.91e5	1.77e5	1.71e5	14335	inactive
CG10725	DRSC09788	2.38e5	1.73e5	1.12e5	1.14e5	17135	inactive
bdg	DRSC07136	1.44e5	1.22e5	2.56e5	2.21e5	10925	inactive
dac	DRSC03518	1.49e5	1.59e5	1.56e5	1.77e5	11480	inactive
tpr	DRSC04468	1.05e5	1.26e5	83510	76720	8005	inactive
Atac2	DRSC02053	2.67e5	1.96e5	1.99e5	1.99e5	16510	inactive
CG15096	DRSC06525	1.30e5	1.12e5	1.98e5	2.67e5	9280	inactive
CG12641 (retired record)	DRSC17848	16580	12520	19710	17010	3190	inactive
CG11313	DRSC14295	1.27e5	1.00e5	1.66e5	1.86e5	10250	inactive
CG7332	DRSC20038	1.30e5	1.01e5	91845	65675	9210	inactive
Fbl6	DRSC06335	1.60e5	1.43e5	1.62e5	1.59e5	14010	inactive
CG40378 (retired record)	DRSC20958	2.55e5	2.14e5	3.39e5	3.56e5	19560	inactive
CG9150	DRSC03148	88980	68420	86885	1.01e5	5195	inactive
CG7841	DRSC10922	1.91e5	1.37e5	2.51e5	2.41e5	11355	inactive
Meltrin	DRSC16274	1.64e5	1.76e5	1.24e5	1.22e5	11012	inactive
Eig71Ef	DRSC11153	1.92e5	1.24e5	2.00e5	2.20e5	5740	inactive
CG4318	DRSC19887	1.32e5	1.38e5	2.79e5	2.57e5	9985	inactive
CG17154	DRSC10253	1.45e5	1.26e5	1.54e5	1.19e5	8682	inactive
Obp46a	DRSC06220	1.69e5	1.43e5	1.89e5	1.96e5	14740	inactive
lectin-46Cb	DRSC06611	1.71e5	1.58e5	2.12e5	2.08e5	18755	inactive
CG1636	DRSC18111	2.04e5	1.66e5	2.62e5	2.41e5	11575	inactive
drl	DRSC03523	1.94e5	1.88e5	1.74e5	1.76e5	13800	inactive
CG1703	DRSC19764	1.22e5	1.06e5	2.20e5	1.67e5	8020	inactive
Or19b + Or19a	DRSC22604						inactive
CG9641	DRSC00721	1.42e5	1.39e5	1.57e5	1.58e5	13700	inactive
CR30068 (retired record)	DRSC05477	1.42e5	1.78e5	2.64e5	2.12e5	14490	inactive
Sf3b3	DRSC08370	47555	49200	78155	83130	3055	inactive
dor	DRSC18765	2.26e5	2.29e5	2.73e5	2.65e5	12265	inactive
Rrp40	DRSC00074	94005	89630	1.57e5	1.53e5	10185	inactive

4 entries already listed, ordered by “control promoter light, run 1, well a”, highest first.
Gene	dsRNA	induced reporter light, run 1, well a	induced reporter light, run 1, well b	control promoter light, run 1, well a	control promoter light, run 1, well b	uninduced reporter light, run 1, well a	Outcome
CG1636	DRSC18111	2.04e5	1.66e5	2.62e5	2.41e5	11575	inactive
lectin-46Cb	DRSC06611	1.71e5	1.58e5	2.12e5	2.08e5	18755	inactive
Obp46a	DRSC06220	1.69e5	1.43e5	1.89e5	1.96e5	14740	inactive
CG17154	DRSC10253	1.45e5	1.26e5	1.54e5	1.19e5	8682	inactive
